Data as given in PubChem BioAssay AID1508587 (Peter MacCallum Cancer Centre, 2020).

Aim: 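Follow-up of vemurafenib sensitisers scored by lactate made per cell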 (follow-up of hits)
Cell system: human WM266.4 melanoma cells with a BRAF V600 mutation
Knock-down reagent: single siRNA against human genes, 25 nM
Timing: 96 h
Challenge: vemurafenib 300 nM (about IC25), given 48 h after transfection for 48 h
Measurement: 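Per-cell lactate from absorbance divided by DAPI nucleus counts, compared with and without vemurafenib, relative to non-targeting siRNA, mean of 2 replicates; nuclear counts also give cell number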
Direction: lactate per cell, drug vs no drug: higher = less drug-induced drop in lactate per cell; lactate per cell with vemurafenib: higher = more lactate per cell under drug; lactate per cell without drug: higher = more lactate per cell without drug; cell growth with vemurafenib and cell growth without drug: higher = more cell growth over 48 h
Rule for the call: 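Enhancer call for any duplex whose drug versus no-drug per-cell lactate ratio is below 0.55 (2 SD beneath non-targeting average); genes confirmed when at least 2 of their 4 duplexes qualify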
Shown is one part, drawn at random, of about 1,600 reagents tested. In the full data, 623 (39%) got an active call. 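Calls are for each duplex; lactate ratios contain extreme outliers.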 The numbers tell different reagents against one gene apart.

target	reagent	lactate per cell, drug vs no drug	lactate per cell with vemurafenib	lactate per cell without drug	cell growth with vemurafenib	cell growth without drug	Call
CLEC14A	1	0.61	1.02	1.12	0.67	0.62	inactive
CLEC14A	2	0.76	1.5	1.34	0.35	0.39	inactive
CLEC14A	3	0.8	1.64	1.38	0.37	0.26	inactive
CLEC14A	4	0.7	1.82	1.72	-0.04	-0.06	inactive
DLL3	1	0.55	1.35	1.54	0.26	0.33	inactive
DLL3	2	0.36	0.74	1.29	0.15	0.18	active
DLL3	3	0.34	0.52	0.96	0.57	0.41	active
DLL3	4	0.7	1.84	1.66	0.21	0.18	inactive
ZNF397	1	0.53	0.5	0.68	1.35	1.56	active
ZNF397	2	0.48	1.43	2.15	0.41	0.26	active
ZNF397	3	0.85	2.02	1.79	0.18	0.24	inactive
ZNF397	4	0.52	0.57	0.8	0.4	0.6	active
MGST3	1	0.59	0.92	1.02	0.62	0.88	inactive
MGST3	2	0.64	2.25	2.42	0.11	0.12	inactive
MGST3	3	0.58	0.88	1.02	0.2	0.42	inactive
MGST3	4	0.53	1.52	1.84	-0.02	-0.02	active
STAB2	1	0.7	1.69	1.56	0.49	0.47	inactive
STAB2	2	0.61	0.98	1.06	0.38	0.83	inactive
STAB2	3	0.44	0.88	1.32	0.37	0.13	active
STAB2	4	1.29	4.29	2.21	-0.04	0.11	inactive
CYP1A1	1	0.57	1.22	1.38	0.79	0.58	inactive
CYP1A1	2	0.7	2.46	2.29	-0.04	0.04	inactive
CYP1A1	3	0.55	0.68	0.81	0.13	0.34	inactive
CYP1A1	4	0.52	0.52	0.68	0.33	0.59	active
MNS1	1	0.68	1.58	1.54	0.01	0.18	inactive
MNS1	2	0.53	0.81	1.02	0.51	0.62	active
MNS1	3	0.54	0.82	1.01	0.96	0.68	active
MNS1	4	0.48	1.05	1.48	-0.1	0.07	active
LGR4	1	0.58	1.77	1.92	0.64	0.37	inactive
LGR4	2	0.44	0.82	1.18	1.03	0.78	active
LGR4	3	0.54	1.08	1.28	0.21	0.52	active
LGR4	4	0.77	1.68	1.38	0.24	0.24	inactive
SPARC	1	0.64	1.52	1.65	0.47	0.27	inactive
SPARC	2	0.52	1.28	1.66	0.62	0.22	active
SPARC	3	0.5	1.52	2.08	0.45	0.25	active
SPARC	4	0.62	0.8	0.86	0.79	1.1	inactive
ESS2	1	0.64	2	1.94	0.49	0.31	inactive
ESS2	2	0.33	1.17	2.17	0	0.04	active
ESS2	3	0.64	1.29	1.25	0.52	0.54	inactive
ESS2	4	0.65	1.17	1.1	0.4	0.6	inactive
RGS2	1	0.92	1.16	0.76	-0.1	0.2	inactive
RGS2	2	0.58	1.07	1.15	0.2	0.33	inactive
RGS2	3	0.3	0.3	0.62	0.32	0.54	active
RGS2	4	0.74	1.23	1.03	0.54	0.75	inactive
CELA2A	1	0.46	0.86	1.09	1.12	0.7	active
CELA2A	2	0.38	1.15	1.76	0.24	0.11	active
CELA2A	3	0.4	0.65	0.98	0.6	0.87	active
CELA2A	4	0.45	1.17	1.62	0.51	0.3	active
PLXNA2	1	0.5	0.47	0.62	0.02	0.37	active
PLXNA2	2	0.43	4.85	7.25	-0.07	-0.14	active
PLXNA2	3	0.64	0.79	0.82	1.49	1.64	inactive
PLXNA2	4	0.47	0.94	1.31	0.48	0.34	active

Sorted by “lactate per cell with vemurafenib” (low to high): some entries from above.
target	reagent	lactate per cell, drug vs no drug	lactate per cell with vemurafenib	lactate per cell without drug	cell growth with vemurafenib	cell growth without drug	Call
ZNF397	4	0.52	0.57	0.8	0.4	0.6	active
MGST3	3	0.58	0.88	1.02	0.2	0.42	inactive
MGST3	1	0.59	0.92	1.02	0.62	0.88	inactive
ZNF397	2	0.48	1.43	2.15	0.41	0.26	active
MGST3	4	0.53	1.52	1.84	-0.02	-0.02	active
STAB2	1	0.7	1.69	1.56	0.49	0.47	inactive
ZNF397	3	0.85	2.02	1.79	0.18	0.24	inactive
MGST3	2	0.64	2.25	2.42	0.11	0.12	inactive
